Data as given in patent publication US20260318831A1 (University of Cincinnati, priority 2023, published 2026).
For at least one compound, name, drawing or mass did not settle the structure.

Assay: Effect of potential biochemical species on fluorescence intensity
Format: physicochemical
Settings: pH 3.0 or 8.2; cations, anions, H2O2, Cys, Hcy, GSH
Text: Next, the effect of potential biochemical species on the fluorescence intensity of PyQPMe in both pH 3.0 and 8.2 buffer solutions was investigated. […] Fluorescence spectra of PyQPMe in various solvents with different polarities were also obtained. […] Furthermore, the photostability of PyQPMe was investigated under different pH conditions. […] Taken together, the above photophysical results identify that PyQPMe is a pH-sensitive probe, well suited for studying endolysosome dynamics via high-resolution imaging techniques.

## CN1CCN(c2ccc(/C=C/c3ccc4cc(-c5ccncc5)ccc4[n+]3C)cc2)CC1 [protonated PyQPMe]
  effect of interfering substances on emission intensity: exhibited strong fluorescence during the whole process
